Measured values from the supplement of paper PMC10849652.
The list shows a part of the results.

Protein sequences, listed by entry. Tags and fused reporters are not part of them. Lines headed by an entry give the natural chain unless they say otherwise; changes in a name come on top.
UniProt Q8N300: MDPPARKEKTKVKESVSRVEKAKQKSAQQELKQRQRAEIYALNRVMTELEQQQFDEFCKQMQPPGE
UniProt Q15543, whole entry, looked up: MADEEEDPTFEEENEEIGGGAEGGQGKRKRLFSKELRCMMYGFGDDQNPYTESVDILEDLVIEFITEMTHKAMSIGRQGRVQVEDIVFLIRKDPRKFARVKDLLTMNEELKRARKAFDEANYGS
UniProt P08842: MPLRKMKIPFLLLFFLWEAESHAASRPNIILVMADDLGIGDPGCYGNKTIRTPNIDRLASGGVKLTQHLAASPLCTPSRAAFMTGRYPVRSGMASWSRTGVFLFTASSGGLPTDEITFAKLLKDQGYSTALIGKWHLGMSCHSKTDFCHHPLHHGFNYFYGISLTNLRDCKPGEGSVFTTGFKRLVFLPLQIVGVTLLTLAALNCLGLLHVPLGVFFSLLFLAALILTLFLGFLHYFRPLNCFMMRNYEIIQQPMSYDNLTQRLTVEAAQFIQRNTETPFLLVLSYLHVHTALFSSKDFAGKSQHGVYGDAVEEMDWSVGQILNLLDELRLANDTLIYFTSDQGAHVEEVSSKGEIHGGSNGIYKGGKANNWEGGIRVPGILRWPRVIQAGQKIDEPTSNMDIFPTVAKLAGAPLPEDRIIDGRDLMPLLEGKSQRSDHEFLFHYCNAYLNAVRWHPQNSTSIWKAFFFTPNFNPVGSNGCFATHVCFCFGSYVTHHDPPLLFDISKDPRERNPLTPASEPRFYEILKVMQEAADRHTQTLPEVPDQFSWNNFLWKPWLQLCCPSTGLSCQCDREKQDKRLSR
UniProt Q5VWG9, whole entry, looked up: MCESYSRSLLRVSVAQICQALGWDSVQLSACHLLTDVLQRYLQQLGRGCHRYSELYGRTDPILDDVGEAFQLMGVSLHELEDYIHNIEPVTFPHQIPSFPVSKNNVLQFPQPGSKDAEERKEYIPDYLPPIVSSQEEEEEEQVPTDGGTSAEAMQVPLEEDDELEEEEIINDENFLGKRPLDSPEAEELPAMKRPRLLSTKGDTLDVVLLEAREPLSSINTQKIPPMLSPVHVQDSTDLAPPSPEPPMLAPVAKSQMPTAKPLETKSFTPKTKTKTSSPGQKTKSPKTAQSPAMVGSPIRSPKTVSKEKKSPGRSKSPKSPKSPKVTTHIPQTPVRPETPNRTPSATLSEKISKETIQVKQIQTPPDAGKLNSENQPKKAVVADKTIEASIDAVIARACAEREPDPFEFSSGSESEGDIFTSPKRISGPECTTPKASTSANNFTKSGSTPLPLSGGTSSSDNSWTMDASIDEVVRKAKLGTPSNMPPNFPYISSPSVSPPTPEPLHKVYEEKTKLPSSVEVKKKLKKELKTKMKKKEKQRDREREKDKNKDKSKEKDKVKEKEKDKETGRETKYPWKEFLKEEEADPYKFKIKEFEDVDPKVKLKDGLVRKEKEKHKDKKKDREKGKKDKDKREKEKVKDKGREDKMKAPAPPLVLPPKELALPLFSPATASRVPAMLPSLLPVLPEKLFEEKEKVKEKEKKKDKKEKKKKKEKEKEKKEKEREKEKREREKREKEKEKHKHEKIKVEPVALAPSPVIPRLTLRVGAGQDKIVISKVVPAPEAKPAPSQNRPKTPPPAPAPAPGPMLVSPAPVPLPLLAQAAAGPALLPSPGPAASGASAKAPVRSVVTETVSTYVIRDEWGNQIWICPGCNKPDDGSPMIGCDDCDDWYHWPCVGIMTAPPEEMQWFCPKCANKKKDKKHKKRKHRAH
UniProt P49842: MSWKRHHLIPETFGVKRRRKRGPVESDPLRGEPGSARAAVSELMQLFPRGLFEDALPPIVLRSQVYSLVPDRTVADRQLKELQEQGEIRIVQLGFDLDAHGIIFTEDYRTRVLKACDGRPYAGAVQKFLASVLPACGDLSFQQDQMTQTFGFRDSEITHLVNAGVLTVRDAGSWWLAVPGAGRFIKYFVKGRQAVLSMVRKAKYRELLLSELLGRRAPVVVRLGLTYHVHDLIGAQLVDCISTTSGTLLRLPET
UniProt Q9UEE5: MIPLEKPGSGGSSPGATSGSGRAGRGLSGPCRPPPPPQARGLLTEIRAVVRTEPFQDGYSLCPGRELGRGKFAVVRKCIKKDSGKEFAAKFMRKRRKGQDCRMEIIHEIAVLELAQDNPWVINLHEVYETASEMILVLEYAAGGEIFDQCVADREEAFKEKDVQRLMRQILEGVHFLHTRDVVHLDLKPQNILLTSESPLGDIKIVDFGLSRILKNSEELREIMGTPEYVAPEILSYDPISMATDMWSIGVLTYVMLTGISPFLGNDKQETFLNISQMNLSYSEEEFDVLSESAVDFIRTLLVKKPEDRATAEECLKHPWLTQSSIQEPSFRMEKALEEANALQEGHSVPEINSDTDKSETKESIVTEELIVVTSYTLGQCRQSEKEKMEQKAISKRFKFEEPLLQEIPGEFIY
UniProt O60506: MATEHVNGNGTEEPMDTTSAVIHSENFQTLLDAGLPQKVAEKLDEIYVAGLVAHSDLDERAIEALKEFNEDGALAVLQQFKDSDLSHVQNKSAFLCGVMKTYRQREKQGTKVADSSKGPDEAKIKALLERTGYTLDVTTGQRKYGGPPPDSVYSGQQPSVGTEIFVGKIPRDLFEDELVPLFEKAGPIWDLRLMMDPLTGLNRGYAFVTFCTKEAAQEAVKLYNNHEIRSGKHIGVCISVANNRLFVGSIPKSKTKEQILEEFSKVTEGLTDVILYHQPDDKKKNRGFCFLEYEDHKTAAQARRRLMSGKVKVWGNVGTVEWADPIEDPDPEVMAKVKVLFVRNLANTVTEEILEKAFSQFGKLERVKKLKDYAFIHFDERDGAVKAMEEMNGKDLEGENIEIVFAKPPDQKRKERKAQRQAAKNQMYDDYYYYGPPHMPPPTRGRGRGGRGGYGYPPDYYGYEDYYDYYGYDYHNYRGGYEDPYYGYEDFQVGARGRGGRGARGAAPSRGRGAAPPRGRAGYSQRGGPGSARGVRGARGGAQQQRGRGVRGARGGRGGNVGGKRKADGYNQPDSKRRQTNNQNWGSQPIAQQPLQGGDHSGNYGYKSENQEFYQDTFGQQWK
UniProt Q15573: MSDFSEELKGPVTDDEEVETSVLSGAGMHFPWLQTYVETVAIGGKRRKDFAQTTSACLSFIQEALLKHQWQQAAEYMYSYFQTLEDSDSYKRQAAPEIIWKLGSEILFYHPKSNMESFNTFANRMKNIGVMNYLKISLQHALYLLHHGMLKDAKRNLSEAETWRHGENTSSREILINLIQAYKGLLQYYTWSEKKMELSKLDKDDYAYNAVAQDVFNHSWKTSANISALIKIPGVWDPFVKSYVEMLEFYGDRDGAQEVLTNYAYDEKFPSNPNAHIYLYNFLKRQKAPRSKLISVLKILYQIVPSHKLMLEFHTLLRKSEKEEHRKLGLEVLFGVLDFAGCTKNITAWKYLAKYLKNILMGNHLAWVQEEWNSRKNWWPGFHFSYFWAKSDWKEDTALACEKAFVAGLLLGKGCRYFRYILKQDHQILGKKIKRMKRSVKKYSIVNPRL
UniProt Q9Y6Q2: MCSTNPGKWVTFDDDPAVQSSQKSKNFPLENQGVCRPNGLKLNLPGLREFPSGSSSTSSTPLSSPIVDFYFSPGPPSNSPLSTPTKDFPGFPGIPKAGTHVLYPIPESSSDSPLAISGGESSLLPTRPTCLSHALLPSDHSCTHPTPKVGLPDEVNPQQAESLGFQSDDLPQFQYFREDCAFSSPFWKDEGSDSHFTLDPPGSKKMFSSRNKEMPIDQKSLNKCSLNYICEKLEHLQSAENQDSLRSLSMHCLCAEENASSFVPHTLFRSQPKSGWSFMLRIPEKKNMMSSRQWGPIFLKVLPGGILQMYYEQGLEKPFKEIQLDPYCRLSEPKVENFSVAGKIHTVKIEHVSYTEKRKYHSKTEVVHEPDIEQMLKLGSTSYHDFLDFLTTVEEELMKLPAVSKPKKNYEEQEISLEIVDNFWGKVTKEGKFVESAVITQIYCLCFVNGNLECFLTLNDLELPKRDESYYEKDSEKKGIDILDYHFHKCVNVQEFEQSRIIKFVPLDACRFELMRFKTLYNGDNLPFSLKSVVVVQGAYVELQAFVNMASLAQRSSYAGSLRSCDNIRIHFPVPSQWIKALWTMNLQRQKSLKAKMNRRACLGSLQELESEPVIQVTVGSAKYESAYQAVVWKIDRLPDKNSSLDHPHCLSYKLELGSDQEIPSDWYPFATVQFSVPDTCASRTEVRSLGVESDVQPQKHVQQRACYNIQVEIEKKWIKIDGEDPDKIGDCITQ
UniProt Q9Y2H1: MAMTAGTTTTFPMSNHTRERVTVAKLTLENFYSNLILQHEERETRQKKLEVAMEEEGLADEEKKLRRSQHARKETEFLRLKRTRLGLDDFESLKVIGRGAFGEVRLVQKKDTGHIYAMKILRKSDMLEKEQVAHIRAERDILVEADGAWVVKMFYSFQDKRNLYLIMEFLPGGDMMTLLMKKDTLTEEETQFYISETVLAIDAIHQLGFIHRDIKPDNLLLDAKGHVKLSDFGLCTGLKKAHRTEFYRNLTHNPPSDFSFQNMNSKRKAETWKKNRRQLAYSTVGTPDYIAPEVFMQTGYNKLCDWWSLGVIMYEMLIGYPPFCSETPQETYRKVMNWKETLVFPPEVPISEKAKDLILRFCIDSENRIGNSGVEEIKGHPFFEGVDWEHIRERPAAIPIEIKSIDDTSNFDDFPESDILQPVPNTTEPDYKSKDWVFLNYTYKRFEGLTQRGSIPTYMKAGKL
UniProt Q6NVH7: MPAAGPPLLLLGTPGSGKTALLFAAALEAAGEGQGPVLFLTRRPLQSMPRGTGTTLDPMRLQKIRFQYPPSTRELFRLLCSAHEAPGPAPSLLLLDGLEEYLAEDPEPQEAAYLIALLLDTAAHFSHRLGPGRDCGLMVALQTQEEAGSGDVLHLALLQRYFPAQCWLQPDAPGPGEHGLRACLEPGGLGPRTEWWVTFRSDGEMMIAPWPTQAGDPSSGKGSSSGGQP
UniProt O75478: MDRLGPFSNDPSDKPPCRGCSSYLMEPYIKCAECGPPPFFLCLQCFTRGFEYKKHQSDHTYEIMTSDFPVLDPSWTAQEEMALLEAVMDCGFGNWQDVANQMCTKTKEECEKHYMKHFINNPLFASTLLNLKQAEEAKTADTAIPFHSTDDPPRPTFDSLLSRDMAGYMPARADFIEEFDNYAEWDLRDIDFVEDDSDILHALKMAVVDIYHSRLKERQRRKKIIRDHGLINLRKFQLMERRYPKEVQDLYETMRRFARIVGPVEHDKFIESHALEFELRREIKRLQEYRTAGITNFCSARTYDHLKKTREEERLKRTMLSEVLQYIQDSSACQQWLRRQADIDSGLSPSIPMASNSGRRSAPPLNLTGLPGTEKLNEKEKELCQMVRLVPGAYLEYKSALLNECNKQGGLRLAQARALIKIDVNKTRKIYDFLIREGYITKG
UniProt P0DMM9: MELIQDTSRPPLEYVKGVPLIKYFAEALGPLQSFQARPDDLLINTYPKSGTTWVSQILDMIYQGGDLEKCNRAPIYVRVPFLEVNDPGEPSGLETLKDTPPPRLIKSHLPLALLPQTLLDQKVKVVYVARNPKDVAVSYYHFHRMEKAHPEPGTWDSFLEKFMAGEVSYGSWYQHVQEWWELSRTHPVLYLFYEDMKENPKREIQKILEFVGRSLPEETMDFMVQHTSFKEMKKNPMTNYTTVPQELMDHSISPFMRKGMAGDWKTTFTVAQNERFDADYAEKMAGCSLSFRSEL
UniProt Q9H668: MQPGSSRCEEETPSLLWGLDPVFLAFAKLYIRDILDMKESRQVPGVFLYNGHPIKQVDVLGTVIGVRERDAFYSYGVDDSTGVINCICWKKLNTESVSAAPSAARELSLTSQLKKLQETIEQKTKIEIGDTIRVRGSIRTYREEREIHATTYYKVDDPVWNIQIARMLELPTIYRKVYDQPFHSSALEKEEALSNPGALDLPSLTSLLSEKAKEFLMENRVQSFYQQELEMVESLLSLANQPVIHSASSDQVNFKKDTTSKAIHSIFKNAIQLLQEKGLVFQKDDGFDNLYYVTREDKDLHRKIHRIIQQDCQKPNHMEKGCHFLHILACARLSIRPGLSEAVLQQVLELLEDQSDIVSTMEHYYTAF
UniProt Q8NFX7: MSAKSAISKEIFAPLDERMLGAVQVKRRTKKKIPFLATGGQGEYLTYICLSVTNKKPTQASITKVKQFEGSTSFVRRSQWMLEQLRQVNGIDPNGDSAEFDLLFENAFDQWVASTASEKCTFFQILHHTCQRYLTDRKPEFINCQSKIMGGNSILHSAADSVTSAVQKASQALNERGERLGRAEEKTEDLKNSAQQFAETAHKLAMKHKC
UniProt O75716, whole entry, looked up: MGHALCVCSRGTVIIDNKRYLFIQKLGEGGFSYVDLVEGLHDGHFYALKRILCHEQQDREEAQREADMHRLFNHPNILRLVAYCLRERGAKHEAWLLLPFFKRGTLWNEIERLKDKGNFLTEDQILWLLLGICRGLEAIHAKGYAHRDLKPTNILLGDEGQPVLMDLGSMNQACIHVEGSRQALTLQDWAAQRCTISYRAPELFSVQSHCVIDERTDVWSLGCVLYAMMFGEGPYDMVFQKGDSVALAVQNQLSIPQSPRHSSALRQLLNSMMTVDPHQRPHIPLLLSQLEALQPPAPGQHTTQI

The targets below were run with Cc1cn(-c2cc(NC(=O)c3ccc(C)c(Nc4nccc(-c5cccnc5)n4)c3)cc(C(F)(F)F)c2)cn1 [nilotinib] (assay: log2 fold change, soluble protein after heating vs DMSO (PISA); higher = thermal stabilisation; K562 lysate, 10 uM; active = over 0.2 and 3.5 SD of the protein, either way, in both replicates (recomputed)).
How it was run: (§1)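 Thermal stability, expressed as log-two fold change relative to solvent controls, is given from duplicates. Crude K562 extract in PBS pH 7.4 with 1 mM MgCl2, at 1 mg/mL protein, was treated with 10 μM compound for 30 min and heated in aliquots for 3 min across 48°C-58°C. After pooling, adjustment to 0.5% NP-40 at 4°C and centrifugation at 21,000xg for 90 min, supernatant protein was measured by TMTpro 16plex LC-MS/MS with channel sums equalised.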

log2 fold change, inactive:
SVBP (UniProt Q8N300) 0.031
TAF13 (UniProt Q15543) 0.066
STS (UniProt P08842) -0.032
TAF3 (UniProt Q5VWG9) 0.013
STK19 (UniProt P49842) 0.112
TAF1C (UniProt Q15572) -0.33
STK17A (UniProt Q9UEE5) 0.076
SYNCRIP isoform 3 (UniProt O60506) -0.08
SYNGR2 (UniProt K7EJ35) 0.066
TAF1A (UniProt Q15573) -0.112
STK3 isoform 2 (UniProt Q13188) 0.015
SZT2 (UniProt Q5T011) -0.03
STON1 isoform 2 (UniProt Q9Y6Q2) 0.295
STK38L (UniProt Q9Y2H1) -0.08
SWSAP1 (UniProt Q6NVH7) -0.136
TADA2A (UniProt O75478) -0.066
SULT1A3 isoform 3 (UniProt P0DMM9) 0.023
STN1 (UniProt Q9H668) -0.149
STXBP6 (UniProt Q8NFX7) -0.037

Each target was assayed with Cc1nc(Nc2n[nH]c3c2CN(C(=O)N[C@H](CN(C)C)c2ccccc2)C3(C)C)c2sccc2n1 in the same assay as above.
How it was run: as §1

log2 fold change, inactive:
SVBP (UniProt Q8N300) 0.077
TAF13 (UniProt Q15543) 0.011
STS (UniProt P08842) 0.079
TAF3 (UniProt Q5VWG9) -0.145
STK19 (UniProt P49842) 0.222
TAF1C (UniProt Q15572) -0.153
STK17A (UniProt Q9UEE5) 0.188
SYNCRIP isoform 3 (UniProt O60506) -0.094
SYNGR2 (UniProt K7EJ35) -0.092
TAF1A (UniProt Q15573) -0.03
STK3 isoform 2 (UniProt Q13188) 0.274
SZT2 (UniProt Q5T011) 0.434
STON1 isoform 2 (UniProt Q9Y6Q2) -0.212
SWSAP1 (UniProt Q6NVH7) 0.031
TADA2A (UniProt O75478) 0.018
SULT1A3 isoform 3 (UniProt P0DMM9) -0.005
STN1 (UniProt Q9H668) -0.071
STXBP6 (UniProt Q8NFX7) -0.004

log2 fold change, active:
STK38L (UniProt Q9Y2H1) 0.68

Each target was assayed with Cc1nc(Nc2ncc(C(=O)Nc3c(C)cccc3Cl)s2)cc(N2CCN(CCO)CC2)n1 [dasatinib] in the same assay as above.
How it was run: as §1

log2 fold change, inactive:
TAF5 (UniProt Q15542) -0.078
STK19 (UniProt P49842) 0.021
TAF1C (UniProt Q15572) -0.036
SUN2 isoform 2 (UniProt Q9UH99) -0.074
SYTL2 isoform 8 (UniProt Q9HCH5) 0.005
STK3 isoform 2 (UniProt Q13188) 0.132
SZT2 (UniProt Q5T011) 0.04
STK38L (UniProt Q9Y2H1) -0.002
SWSAP1 (UniProt Q6NVH7) 0.038
STRN3 (UniProt H0YJT2) -0.037
SULT1A3 isoform 3 (UniProt P0DMM9) -0.039
STRN3 isoform 2 (UniProt Q13033) 0.155
STK26 isoform 3 (UniProt Q9P289) 0.181
SUGCT isoform 3 (UniProt Q9HAC7) -0.25
SUSD1 isoform 2 (UniProt Q6UWL2) 0.035
STK16 (UniProt O75716) -0.003
STK10 (UniProt O94804) 0.168

What follows are targets tested with Cc1ncc(-c2ccnc(Nc3ccc(S(C)(=O)=O)cc3)n2)n1C(C)C in the same assay as above.
How it was run: as §1

log2 fold change, inactive:
SVBP (UniProt Q8N300) 0.032
TAF13 (UniProt Q15543) -0.079
STS (UniProt P08842) -0.098
TAF3 (UniProt Q5VWG9) -0.226
STK19 (UniProt P49842) -0.03
TAF1C (UniProt Q15572) -0.089
STK17A (UniProt Q9UEE5) 0.249
SYNCRIP isoform 3 (UniProt O60506) -0.01
SYNGR2 (UniProt K7EJ35) 0.114
TAF1A (UniProt Q15573) -0.091
STK3 isoform 2 (UniProt Q13188) 0.179
SZT2 (UniProt Q5T011) 0.02
STON1 isoform 2 (UniProt Q9Y6Q2) -0.006
STK38L (UniProt Q9Y2H1) -0.009
SWSAP1 (UniProt Q6NVH7) 0.02
TADA2A (UniProt O75478) -0.019
SULT1A3 isoform 3 (UniProt P0DMM9) -0.013
STN1 (UniProt Q9H668) 0.034
STXBP6 (UniProt Q8NFX7) 0.035
